Experimental data: PubChem BioAssay AID504791 (Drosophila RNAi Screening Center, 2011)

Test: 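Genes whose knock-down strengthens or weakens small-RNA reporter silencing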 (primary screen)
Cells: Drosophila S2-derived reporter cells
Reagent: long dsRNA against Drosophila genes, about 150-250 ng dsRNA per well (siRNA assay); about 80-120 ng (miRNA assay)
Duration: about 5 days (siRNA assay); about 4 days (miRNA assay)
Challenge: copper sulfate induction of reporters: 25 µM (siRNA assay); 200 mM stated (miRNA assay), 1-2 days before reading
Measurement: 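Dual luciferase assay: Renilla to firefly signal ratio in each well, scaled to the mean ratio of its plate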
Scale: siRNA reporter hit score: higher = 3 marks a strong hit with raised ratio; -3 a strong hit with lowered ratio
Hit rule: 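a well was a first-pass pick when its plate-scaled ratio rose above 1.5 (siRNA assay) or 1.6 (miRNA assay), or dropped below 0.6; a gene counted only if two separate dsRNAs agreed on retest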
The deposit covers about 23,000 reagents; below is a random part of those with a known target gene and a result. Of all reagents, 199 (0.86%) were called active. 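Plate-scaled ratios behind the calls are not deposited; printed light signals are raw; many rows marked increased or decreased are still called inactive.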 The numbers tell different reagents against one gene apart.

predicted target | reagent no. | siRNA reporter hit score | stable siRNA reporter change | miRNA reporter change | stable assay Renilla, run 1 (luminescence) | stable assay firefly, run 1 (luminescence) | call
Twdlalpha (GeneID 326223) | 1 | – | – | – | 6003 | 4.86e5 | inactive
Zfrp8 (GeneID 45021) | 1 | – | – | – | 6158 | 3.00e5 | inactive
CG15631 (GeneID 33675) | 1 | – | – | – | 8043 | 4.39e5 | inactive
CG12691 (GeneID 31370) | 1 | – | – | – | 4291 | 2.80e5 | inactive
CG12502 (GeneID 38102) | 1 | – | – | – | 6112 | 3.53e5 | inactive
CG12502 (GeneID 38102) | 2 | – | – | – | 4255 | 2.98e5 | inactive
CG7394 (GeneID 39294) | 1 | – | – | – | 7320 | 4.50e5 | inactive
CG12521 (GeneID 50289) | 1 | – | – | – | 5911 | 4.53e5 | inactive
CG13587 (GeneID 37930) | 1 | – | – | – | 6858 | 3.75e5 | inactive
CG9577 (GeneID 33016) | 1 | – | – | – | 2591 | 3.59e5 | inactive
GstE7 (GeneID 37112) | 1 | – | – | – | 9555 | 3.11e5 | inactive
Npc2c (GeneID 41233) | 1 | – | – | – | 6123 | 3.84e5 | inactive
cold (GeneID 33237) | 1 | – | – | – | 30058 | 3.07e5 | inactive
LUBEL (GeneID 33950) | 1 | – | – | – | 8248 | 4.87e5 | inactive
Gr59c (GeneID 192481) | 1 | – | – | – | 5520 | 3.02e5 | inactive
Sec10 (GeneID 42863) | 1 | – | reporter ratio raised past the hit cutoff | – | 8434 | 2.18e5 | inactive
CG15597 (GeneID 40767) | 1 | – | – | – | 4044 | 4.86e5 | inactive
CG31089 (GeneID 43135) | 1 | – | – | – | 6398 | 3.25e5 | inactive
Cpr72Eb (GeneID 39815) | 1 | – | – | – | 7592 | 5.03e5 | inactive
nw (GeneID 3772015) | 1 | – | – | – | 9205 | 3.19e5 | inactive
nw (GeneID 3772015) | 2 | – | – | – | 5783 | 2.84e5 | inactive
mRpL22 (GeneID 32662) | 1 | – | – | – | 6099 | 4.15e5 | inactive
CG18367 (GeneID 37255) | 1 | – | – | – | 4931 | 5.48e5 | inactive
CG2924 (GeneID 31214) | 1 | – | – | – | 6219 | 3.08e5 | inactive
CG12942 (GeneID 36158) | 1 | – | – | – | 8694 | 4.75e5 | inactive
lncRNA:roX1 (GeneID 3772376) | 1 | – | – | – | 8862 | 4.76e5 | inactive
MED20 (GeneID 43952) | 1 | -3 | – | – | 7179 | 3.50e5 | inactive
CG13272 (GeneID 35013) | 1 | – | – | – | 7398 | 3.52e5 | inactive
CG13272 (GeneID 35013) | 2 | – | – | – | 2295 | 2.54e5 | inactive
CG14074 (GeneID 40051) | 1 | – | – | – | 8521 | 4.60e5 | inactive
l(3)L1231 (GeneID 41776) | 1 | – | – | – | 9200 | 3.81e5 | inactive
CG17068 (GeneID 33024) | 1 | – | – | – | 7278 | 3.80e5 | inactive
CG18599 (GeneID 42191) | 1 | – | – | – | 3576 | 3.40e5 | inactive
CG18599 (GeneID 42191) | 2 | – | – | reporter ratio raised past the hit cutoff | 3556 | 2.56e5 | inactive
CG18599 (GeneID 42191) | 3 | – | – | – | 3815 | 2.80e5 | inactive
kto (GeneID 44830) | 1 | – | – | – | 6859 | 2.62e5 | inactive
Rchy1 (GeneID 33901) | 1 | – | – | – | 6280 | 3.53e5 | inactive
Rchy1 (GeneID 33901) | 2 | – | reporter ratio raised past the hit cutoff | – | 3795 | 1.27e5 | inactive
CG5021 (GeneID 39025) | 1 | – | – | – | 5619 | 3.27e5 | inactive
CG14082 (GeneID 40088) | 1 | – | – | – | 7107 | 4.44e5 | inactive
CR40441 (GeneID 10178882) | 1 | – | – | – | 3659 | 3.82e5 | inactive
Cyp6d2 (GeneID 37594) | 1 | – | – | – | 4850 | 3.43e5 | inactive
CG31313 (GeneID 318677) | 1 | – | – | – | 4991 | 4.53e5 | inactive
HHEX (GeneID 42495) | 1 | – | – | reporter ratio lowered past the hit cutoff | 8737 | 4.08e5 | inactive
CG34409 (GeneID 5740854) | 1 | – | – | – | 6987 | 3.81e5 | inactive
CG34409 (GeneID 5740854) | 2 | – | – | – | 9643 | 5.24e5 | inactive
Yif1 (GeneID 43217) | 1 | – | – | – | 6155 | 4.20e5 | inactive
iotaTry (GeneID 36223) | 1 | – | – | – | 5683 | 2.93e5 | inactive
CG5895 (GeneID 39752) | 1 | – | – | – | 7123 | 4.65e5 | inactive
Rpt4 (GeneID 31567) | 1 | – | – | reporter ratio raised past the hit cutoff | 5927 | 2.61e5 | inactive
CG5938 (GeneID 43290) | 1 | – | – | – | 7119 | 4.52e5 | inactive
CG4982 (GeneID 39794) | 1 | – | – | – | 4108 | 4.43e5 | inactive
NP15.6 (GeneID 42282) | 1 | – | – | – | 7219 | 4.48e5 | inactive
Best3 (GeneID 39661) | 1 | – | – | – | 8865 | 4.50e5 | inactive
CtsK1 (GeneID 39547) | 1 | – | – | – | 7446 | 4.92e5 | inactive
CG8646 (GeneID 36394) | 1 | – | – | – | 5704 | 2.73e5 | inactive
TTLL1A (GeneID 32704) | 1 | – | – | – | 7910 | 3.38e5 | inactive
CG7148 (GeneID 40432) | 1 | – | – | – | 9017 | 3.71e5 | inactive
CG13255 (GeneID 50109) | 1 | – | – | – | 6974 | 4.25e5 | inactive
c(2)M (GeneID 34964) | 1 | – | – | – | 14204 | 1.70e6 | inactive
CG10543 (GeneID 37379) | 1 | – | – | – | 5895 | 3.65e5 | inactive
CG10543 (GeneID 37379) | 2 | – | – | – | 3232 | 3.45e5 | inactive
odd (GeneID 33583) | 1 | – | – | – | 6019 | 2.32e5 | inactive
odd (GeneID 33583) | 2 | – | – | – | 4671 | 3.42e5 | inactive
rut (GeneID 32406) | 1 | 3 | – | – | 4159 | 2.88e5 | inactive
rut (GeneID 32406) | 2 | – | – | – | 5454 | 3.94e5 | inactive
DZIP1 (GeneID 42921) | 1 | – | – | – | 8795 | 4.61e5 | inactive
CG10559 (GeneID 43063) | 1 | – | – | – | 7230 | 4.05e5 | inactive
fs(2)ltoPP43 (GeneID 49505) | 1 | – | – | – | 6750 | 5.29e5 | inactive
CG16753 (GeneID 38365) | 1 | – | – | – | 7099 | 4.23e5 | inactive
CG31038 (GeneID 43535) | 1 | – | – | – | 6946 | 4.55e5 | inactive
CG31038 (GeneID 43535) | 2 | – | – | – | 6826 | 4.05e5 | inactive
CG31038 (GeneID 43535) | 3 | – | – | – | 7243 | 3.98e5 | inactive
CG12099 (GeneID 38181) | 1 | – | – | – | 6758 | 3.73e5 | inactive
lft (GeneID 34405) | 1 | – | – | – | 6890 | 2.78e5 | inactive
CG42697 (GeneID 10178822) | 1 | – | – | – | 5287 | 4.12e5 | inactive
CG2983 (GeneID 33485) | 1 | – | – | – | 8319 | 5.63e5 | inactive
CG8778 (GeneID 36392) | 1 | – | – | – | 4959 | 2.87e5 | inactive
CG13423 (GeneID 37315) | 1 | – | – | – | 7006 | 3.49e5 | inactive
CR42546 (GeneID 8674079) | 1 | – | – | – | 6731 | 4.20e5 | inactive
tou (GeneID 36241) | 1 | – | – | – | 7336 | 3.98e5 | inactive
tou (GeneID 36241) | 2 | – | – | – | 4147 | 4.43e5 | inactive
CG6006 (GeneID 41962) | 1 | – | – | – | 4475 | 3.19e5 | inactive
CG6006 (GeneID 41962) | 2 | – | – | – | 11201 | 5.28e5 | inactive

A run of entries of the results above, for reference:
predicted target | reagent no. | siRNA reporter hit score | stable siRNA reporter change | miRNA reporter change | stable assay Renilla, run 1 (luminescence) | stable assay firefly, run 1 (luminescence) | call
CG34409 (GeneID 5740854) | 2 | – | – | – | 9643 | 5.24e5 | inactive
Yif1 (GeneID 43217) | 1 | – | – | – | 6155 | 4.20e5 | inactive
iotaTry (GeneID 36223) | 1 | – | – | – | 5683 | 2.93e5 | inactive
CG5895 (GeneID 39752) | 1 | – | – | – | 7123 | 4.65e5 | inactive
Rpt4 (GeneID 31567) | 1 | – | – | reporter ratio raised past the hit cutoff | 5927 | 2.61e5 | inactive
CG5938 (GeneID 43290) | 1 | – | – | – | 7119 | 4.52e5 | inactive
CG4982 (GeneID 39794) | 1 | – | – | – | 4108 | 4.43e5 | inactive
NP15.6 (GeneID 42282) | 1 | – | – | – | 7219 | 4.48e5 | inactive
Best3 (GeneID 39661) | 1 | – | – | – | 8865 | 4.50e5 | inactive
CtsK1 (GeneID 39547) | 1 | – | – | – | 7446 | 4.92e5 | inactive
CG8646 (GeneID 36394) | 1 | – | – | – | 5704 | 2.73e5 | inactive
TTLL1A (GeneID 32704) | 1 | – | – | – | 7910 | 3.38e5 | inactive
